Measured values taken from US10844015B2, “Pyridine dicarboxamide derivatives as bromodomain inhibitors” (GlaxoSmithKline Intellectual Property (No. 2) Limited, priority 2016, dated 2020).
Some entries share one result that the patent states for a list of compounds.

System: BRD4 BD2 over BRD4 BD1
Experiment: Calculation of selectivity for BRD4 BD2 over BRD4 BD1 from the TR-FRET assays
Assay type: binding, Human
Conditions: for selectivity for BRD4 BD2 over BRD4 BD1: BRD4 BD2 pIC50 − BRD4 BD1 pIC50, in at least one of the TR-FRET assays; for fold selective for BRD4 BD2 over BRD4 BD1: stated from the log unit selectivity
Experimental: The competition of the compounds of formula (I) with Reference Compound X for binding to the BET family (BRD2, BRD3, BRD4 and BRDT) was assessed using protein truncates spanning both bromodomain 1 (BD1) and bromodomain 2 (BD2). In order to monitor differential binding to either BD1 or BD2, single residue mutations of key tyrosines to alanine were made in the acetyl lysine binding pockets. To validate this approach, a double residue mutant tandem domain protein was produced for each of the BET family members. Utilising a Fluorescence Polarisation approach, binding affinities for each of the single and double mutants for Reference Compound X were determined.
All assay components were dissolved in an assay buffer composing of 50 mM HEPES pH7.4, 50 mM NaCl, 5% Glycerol, 1 mM DTT and 1 mM CHAPS. […] The solution containing bromodomain and Reference Compound X was added to dose response dilutions of test compound or DMSO vehicle (a maximum of 0.5% DMSO is used in this assay) in Greiner 384 well black low volume microtitre plates and subsequently incubated for 30 minutes at room temperature. An equal volume of 3 nM of anti-6*His Europium chelate was added to all wells, followed by a further 30 minute incubation at room temperature. TR-FRET was detected using a Perkin Elmer Multimode plate reader, by exciting the donor fluorophore at λ337 nm and subsequently, after a delay of 50 μsecs, measuring emission of the donor and acceptor fluorophores at λ615 nm and λ665 nm, respectively. In order to control these assays, 16 replicates each of uninhibited (DMSO vehicle) and inhibited (10*IC50 concentrations of Example 11 of WO 2011/054846A1) TR-FRET assays were included on every microtitre plate.
All compounds (Examples) were each tested in the BRD4 BD1 and the BRD4 BD2 TR-FRET assays essentially as described above. Those of skill in the art will recognise that in vitro binding assays and cell-based assays for functional activity are subject to experimental variability. Accordingly, it is to be understood that the pIC50 values given below are exemplary only. pIC50 values are expressed as log10 units.
Calculation of Selectivity for BRD4 BD2 Over BRD4 BD1
Selectivity for BRD4 BD2 over BRD4 BD1 was calculated as follows: Selectivity=BRD4BD2pIC50−BRD4BD1pIC50

Compound	selectivity for BRD4 BD2 over BRD4 BD1 [log unit]	fold selective for BRD4 BD2 over BRD4 BD1
CNC(=O)c1cc(C(=O)N[C@H]2C[C@@H]2C)cc(C(C)c2cncc3[nH]ccc23)n1 (mixture of isomers) [Example 48, 6-(1-(1H-Pyrrolo[2,3-c]pyridin-4-yl)ethyl)-N^2-methyl-N^4-((1S,2S)-2-methylcyclopropyl)pyridine-2,4-dicarboxamide]	≥ 3	at least 1000 fold
CNC(=O)c1cc(C(=O)N[C@H]2C[C@@H]2C)cc(C(C)c2cccc(OCCO)c2)n1 (mixture of isomers) [Example 62]	≥ 3	at least 1000 fold
CNC(=O)c1cc(C(=O)N[C@H]2C[C@@H]2C)cc(C(C)c2ccnc3[nH]ccc23)n1 (mixture of isomers) [Example 84, 6-(1-(1H-Pyrrolo[2,3-b]pyridin-4-yl)ethyl)-N^2-methyl-N^4-((1S,2S)-2-methylcyclopropyl)pyridine-2,4-dicarboxamide]	≥ 3	at least 1000 fold
CNC(=O)c1cc(C(=O)N[C@H]2C[C@@H]2C)cc(C(CC#N)c2ccccc2)n1 (mixture of isomers) [Example 87, 6-(2-Cyano-1-phenylethyl)-N^2-methyl-N^4-((1S,2S)-2-methylcyclopropyl)pyridine-2,4-dicarboxamide]	≥ 3	at least 1000 fold
CNC(=O)c1cc(C(=O)N[C@H]2[C@@H]3CC(F)(F)C[C@@H]32)cc(C(O)c2ccccc2)n1 (mixture of isomers) [Example 73, (+/−)-N^4-((1R,5S,6r)-3,3-Difluorobicyclo[3.1.0]hexan-6-yl)-6-(hydroxy(phenyl)methyl)-N^2-methylpyridine-2,4-dicarboxamide]	≥ 3	at least 1000 fold
CNC(=O)c1cc(C(=O)N[C@H]2C[C@@H]2C)cc(C(C)c2cccc(OCCO)c2)n1 (relative stereo) [Example 71, 6-((S*)-1-(3-(2-Hydroxyethoxy)phenyl)ethyl)-N^2-methyl-N^4-((1S,2S)-2-methylcyclopropyl)pyridine-2,4-dicarboxamide]	≥ 3	at least 1000 fold
C[C@H]1C[C@@H]1N1C(C(O)c2cccc(F)c2)=CC(C(N)=O)=CC1C(N)=O (relative stereo) [Example 95, 6-((R*)-(3-Fluorophenyl)(hydroxy)methyl)-1-((1S,2S)-2-methylcyclopropyl)pyridine-2,4-dicarboxamide]	≥ 3	at least 1000 fold
CNC(=O)c1cc(C(=O)N[C@H]2C[C@@H]2C)cc(C(C)c2ccnc3[nH]ccc23)n1 (relative stereo) [Example 100, 6-((S*)-1-(1H-Pyrrolo[2,3-b]pyridin-4-yl)ethyl)-N^2-methyl-N^4-((1S,2S)-2-methylcyclopropyl)pyridine-2,4-dicarboxamide]	≥ 3	at least 1000 fold
CNC(=O)c1cc(C(=O)N[C@H]2C[C@@H]2C)cc(C(CC#N)c2ccccc2)n1 (relative stereo) [Example 103, 6-((R*)-2-Cyano-1-phenylethyl)-N^2-methyl-N^4-((1S,2S)-2-methylcyclopropyl)pyridine-2,4-dicarboxamide]	≥ 3	at least 1000 fold
CNC(=O)c1cc(C(=O)N[C@H]2C[C@@H]2C)cc(C(CO)c2ccccc2)n1 (single isomer, unassigned) [Example 63]	≥ 3	at least 1000 fold
CNC(=O)c1cc(C(=O)N[C@H]2C[C@@H]2C)cc(C(O)c2ccccc2C)n1 (single isomer, unassigned) [Example 69]	≥ 3	at least 1000 fold
CNC(=O)c1cc(C(=O)NC2CC2)cc(C(O)c2ccccc2OC)n1 (single isomer, unassigned) [Example 92, (S*)—N^4-Cyclopropyl-6-(hydroxy(2-methoxyphenyl)methyl)-N^2-methylpyridine-2,4-dicarboxamide]	≥ 3	at least 1000 fold
CNC(=O)c1cc(C(=O)N[C@H]2C[C@@H]2C)cc(C(C)c2cccc3c2CC(=O)N3)n1 (single isomer, unassigned) [Example 99]	≥ 3	at least 1000 fold
CNC(=O)c1cc(C(=O)NC2CC2)cc(Cc2cccc(OC)c2)n1 [Example 12, N^4-Cyclopropyl-6-(3-methoxybenzyl)-N^2-methylpyridine-2,4-dicarboxamide]	≥ 3	at least 1000 fold
CNC(=O)c1cc(C(=O)N[C@H]2C[C@@H]2C)cc(Cc2cccc(OC)c2)n1 [Example 13, 6-(3-Methoxybenzyl)-N^2-methyl-N^4-((1S,2S)-2-methylcyclopropyl)pyridine-2,4-dicarboxamide]	≥ 3	at least 1000 fold
CNC(=O)c1cc(C(=O)N[C@H]2C[C@@H]2C)cc(Cc2cccc3[nH]ccc23)n1 [Example 18, 6-((1H-Indol-4-yl)methyl)-N^2-methyl-N^4-((1S,2S)-2-methylcyclopropyl)pyridine-2,4-dicarboxamide]	≥ 3	at least 1000 fold
CNC(=O)c1cc(C(=O)N[C@H]2C[C@@H]2C)cc(Cc2cccc3c2CC(=O)N3)n1 [Example 24, N^2-Methyl-N^4-((1S,2S)-2-methylcyclopropyl)-6-((2-oxoindolin-4-yl)methyl)pyridine-2,4-dicarboxamide]	≥ 3	at least 1000 fold
CNC(=O)c1cc(C(=O)N[C@H]2[C@@H]3CC(F)(F)C[C@@H]32)cc(Cc2cccc3[nH]ccc23)n1 [Example 67, 6-((1H-Indol-4-yl)methyl)-N^4-((1R,5S,6r)-3,3-difluorobicyclo[3.1.0]hexan-6-yl)-N^2-methylpyridine-2,4-dicarboxamide]	≥ 3	at least 1000 fold
CNC(=O)c1cc(C(=O)N[C@H]2C[C@@H]2C)cc(C(O)c2cccc3[nH]ccc23)n1 (stereo partly drawn) [Example 68, 6-(Hydroxy(1H-indol-4-yl)methyl)-N^2-methyl-N^4-((1S,2S)-2-methylcyclopropyl)pyridine-2,4-dicarboxamide]	≥ 3	at least 1000 fold
CNC(=O)c1cc(C(=O)N[C@H]2C[C@@H]2C)cc(Cc2cccc3c2ccn3CCO)n1 [Example 82, 6-((1-(2-Hydroxyethyl)-1H-indol-4-yl)methyl)-N^2-methyl-N^4-((1S,2S)-2-methylcyclopropyl)pyridine-2,4-dicarboxamide]	≥ 3	at least 1000 fold
CNC(=O)c1cc(C(=O)N[C@H]2[C@@H]3CC(F)(F)C[C@@H]32)cc(Cc2ccnc3[nH]ccc23)n1 [Example 88, 6-((1H-Pyrrolo[2,3-b]pyridin-4-yl)methyl)-N^4-((1R,5S,6r)-3,3-difluorobicyclo[3.1.0]hexan-6-yl)-N^2-methylpyridine-2,4-dicarboxamide]	≥ 3	at least 1000 fold
